Values quoted from earlier work in US8092800B2 (priority 2005, dated 2012).

Tested on: Candida albicans strain AIDS 68
Conditions: strain AIDS 68, isolated from an AIDS patient as fluconazole resistant; cited from earlier work

OC(Cn1cncn1)(Cn1cncn1)c1ccc(F)cc1F [Fluconazole, fluconazole]
MIC: > 64 µg/mL
